Experimental data reported in US20130316958A1 (University of Southern California, priority 2010, published 2013).
For some of these results: At least one compound was matched to its structure with a doubt left. Some entries share one result that the patent states for a list of compounds.

Tests used:
[1] = tested on: KSHV-infected BCBL1 cells; experiment: Rapamycin- or zVAD-induced growth suppression and autophagic death; format: cell-based
Procedure: The effect of vFLIP on autophagy was tested in a KSHV-infected BCBL1 cell line. TREX-BCBL-Vector and TREX-BCBL-vFLIP cells were treated with rapamycin or left untreated for 6 days in the presence of doxycycline and subjected to scanning EM, to examine the morphologies of over 100 dead cells and quantify cell death for apoptosis and autophagic death, or subjected to PI staining and cell cycle analysis.
All siRNAs were produced by Dharmacon Research. siRNAs specific for human Beclin1 (5′[…]3′) and a nonspecific scrambled control siRNA were transfected using DharmaFect reagent (Dharmacon) according to the manufacturer's instructions. At 48-72 hr post-transfection, cells were analyzed for autophagy. Trypan blue staining and a Beckman Coulter Z2 Particle Count and Size analyzer were used to determine cell death (as a percentage) at day 5.

TREX-BCBL-Vector cells = experiment: Cell death after overnight peptide incubation; format: cell-based; details: 30 or 50 μM peptide
From the text: The vFLIP α2 (10 aa) and α4 (12 aa) peptides that independently bound Atg3 at high efficiency were fused with the HIV-1 TAT protein transduction domain for intracellular delivery (Gump and Dowdy (2007) Trends Mol. Med. 13:443-448) and tested for their potential effects on autophagy induction. The K-α2 and K-α4 peptides contained KSHV vFLIP aa20-29 and aa128-139 regions, respectively, as retro-inverso versions to circumvent the proteolytic degradation. Mutant peptides K-α2m and K-α4m were also included, which replaced the hydrophobic core residues of the K-α2 (L21F22L23) and K-α4 (F130L-WVY139) peptides with alanines, as well as the C-α2 and C-α4 peptides containing the cFLIPs regions aa19-28 and aa128-139, respectively. At 12 hr post-transfection with GFP-LC3, KSHV-infected TREX-BCBL-Vector and TREX-BCBL-vFLIP cells were incubated with various concentrations of the peptides or rapamycin for an additional 12 hr, followed by an assessment of the GFP-LC3 puncta and cell death. […] Peptide-treated TREX-BCBL-Vector and TREX-BCBL-vFLIP cells were subjected to immunoblotting with αLC3 and aactin.

| Molecule | growth suppression and cell death ([1]; BCBL1 cells) | cell cycle analysis (PI staining) ([1]; rapamycin, 6 days) | cell death (TREX-BCBL-Vector cells) |
| --- | --- | --- | --- |
| CO[C@H]1C[C@@H]2CC[C@@H](C)[C@@](O)(O2)C(=O)C(=O)N2CCCC[C@H]2C(=O)O[C@H]([C@H](C)C[C@@H]2CC[C@@H](O)[C@H](OC)C2)CC(=O)[C@H](C)/C=C(\C)[C@@H](O)[C@@H](OC)C(=O)[C@H](C)C[C@H](C)/C=C/C=C/C=C/1C [rapamycin] | effectively induced growth suppression and cell death | minor increases of G1 cell cycle arrest and apoptosis (sub G1 population) | – |
| RRRQRRKKRGY-G-FVNLLFLVVE (RRRQRRKKRGYGFVNLLFLVVE; D-residues) [K-α2, HIV-1 TAT-fused retro-inverso peptide containing KSHV vFLIP aa20-29] | – | – | 50-60% |
| RRRQRRKKRGY-G-NEMCYVWHLFTQ (RRRQRRKKRGYGNEMCYVWHLFTQ; D-residues) [K-α4, HIV-1 TAT-fused retro-inverso peptide containing KSHV vFLIP aa128-139] | – | – | 75-90% |
